Read-outs that look alike come from different tables or passages of the source. No constants are given. Whether binding was seen depends on the method and setting. Binding seen in cells or lysates may run through a third protein. Here binding means that the protein was enriched with, or labelled near, the bait; the list need not be complete.
Key:
[1] = target: SIRT1-APEX2 fusion protein (UniProt Q96EB6); test: proximity labelling; APEX2: SIRT1-APEX2 in HEK 293T cells; 500 uM biotin-phenol with or without 20 uM resveratrol for 30 min at 37 C, 1 mM H2O2 for 1 min; RIPA lysate, streptavidin magnetic beads, on-bead trypsin digestion, LC-MS/MS, label-free quantitation
[2] = target: SIRT1-APEX2 fusion protein (UniProt Q96EB6); test: as above; remark: listed apart in the source

Sequences of proteins named here, by UniProt entry; tags and fusion partners are left off. Residues count along the entry.
UniProt Q96EB6: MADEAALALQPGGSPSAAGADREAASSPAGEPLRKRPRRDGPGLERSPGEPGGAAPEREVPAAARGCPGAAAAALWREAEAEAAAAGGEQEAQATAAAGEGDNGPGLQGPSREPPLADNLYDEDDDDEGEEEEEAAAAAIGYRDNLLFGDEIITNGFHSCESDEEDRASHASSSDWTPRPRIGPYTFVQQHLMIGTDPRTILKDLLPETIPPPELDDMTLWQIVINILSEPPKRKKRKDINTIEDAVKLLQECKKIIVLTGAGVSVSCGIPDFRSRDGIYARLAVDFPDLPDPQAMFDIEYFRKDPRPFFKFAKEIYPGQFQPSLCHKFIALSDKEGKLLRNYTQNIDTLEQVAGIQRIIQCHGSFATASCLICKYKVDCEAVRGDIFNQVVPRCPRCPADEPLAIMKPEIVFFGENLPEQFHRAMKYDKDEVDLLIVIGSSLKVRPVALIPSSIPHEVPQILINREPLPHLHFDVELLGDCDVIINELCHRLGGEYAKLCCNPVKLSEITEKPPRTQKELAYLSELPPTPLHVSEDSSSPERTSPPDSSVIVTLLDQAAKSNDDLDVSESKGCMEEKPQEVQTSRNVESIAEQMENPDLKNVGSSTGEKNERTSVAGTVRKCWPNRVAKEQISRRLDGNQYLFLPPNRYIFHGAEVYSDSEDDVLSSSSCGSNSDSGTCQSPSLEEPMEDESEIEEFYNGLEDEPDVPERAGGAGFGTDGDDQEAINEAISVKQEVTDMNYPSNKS
UniProt P08238: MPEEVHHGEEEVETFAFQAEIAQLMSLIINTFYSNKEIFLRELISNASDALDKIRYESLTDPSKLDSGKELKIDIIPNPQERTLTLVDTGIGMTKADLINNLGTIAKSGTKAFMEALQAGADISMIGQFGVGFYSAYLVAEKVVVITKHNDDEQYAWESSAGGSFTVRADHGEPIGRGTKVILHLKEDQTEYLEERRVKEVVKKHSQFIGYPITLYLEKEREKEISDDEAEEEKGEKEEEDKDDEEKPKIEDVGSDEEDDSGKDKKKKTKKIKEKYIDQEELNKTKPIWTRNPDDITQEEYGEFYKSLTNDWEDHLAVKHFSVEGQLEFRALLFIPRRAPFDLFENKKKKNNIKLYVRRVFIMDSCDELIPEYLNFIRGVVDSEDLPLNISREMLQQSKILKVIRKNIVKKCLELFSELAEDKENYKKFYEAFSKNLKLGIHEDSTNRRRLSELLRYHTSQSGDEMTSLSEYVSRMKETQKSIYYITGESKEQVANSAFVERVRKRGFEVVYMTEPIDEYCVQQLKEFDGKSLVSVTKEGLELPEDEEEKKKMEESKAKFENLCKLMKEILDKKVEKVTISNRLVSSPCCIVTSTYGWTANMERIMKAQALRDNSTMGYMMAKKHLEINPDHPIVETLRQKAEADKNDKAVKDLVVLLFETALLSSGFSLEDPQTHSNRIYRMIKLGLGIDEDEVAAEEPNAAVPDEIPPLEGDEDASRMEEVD
UniProt P11021, residues 19-654: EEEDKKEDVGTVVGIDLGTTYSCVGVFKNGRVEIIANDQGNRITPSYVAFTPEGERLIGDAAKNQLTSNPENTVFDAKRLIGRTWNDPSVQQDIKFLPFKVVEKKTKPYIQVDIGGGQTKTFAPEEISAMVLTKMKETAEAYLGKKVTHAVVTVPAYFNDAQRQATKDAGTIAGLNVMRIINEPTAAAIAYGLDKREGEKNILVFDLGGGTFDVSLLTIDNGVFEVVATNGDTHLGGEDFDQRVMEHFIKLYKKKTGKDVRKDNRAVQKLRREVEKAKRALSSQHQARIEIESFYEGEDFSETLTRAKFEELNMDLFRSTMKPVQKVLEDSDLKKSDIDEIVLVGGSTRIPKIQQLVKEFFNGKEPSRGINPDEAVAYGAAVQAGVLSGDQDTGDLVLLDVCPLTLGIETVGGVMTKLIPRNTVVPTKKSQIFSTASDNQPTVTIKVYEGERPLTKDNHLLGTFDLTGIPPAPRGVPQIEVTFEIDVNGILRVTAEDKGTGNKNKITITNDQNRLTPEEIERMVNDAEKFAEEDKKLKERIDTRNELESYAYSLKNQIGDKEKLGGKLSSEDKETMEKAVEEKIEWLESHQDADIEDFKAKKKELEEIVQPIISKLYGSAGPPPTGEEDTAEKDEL
UniProt P67809: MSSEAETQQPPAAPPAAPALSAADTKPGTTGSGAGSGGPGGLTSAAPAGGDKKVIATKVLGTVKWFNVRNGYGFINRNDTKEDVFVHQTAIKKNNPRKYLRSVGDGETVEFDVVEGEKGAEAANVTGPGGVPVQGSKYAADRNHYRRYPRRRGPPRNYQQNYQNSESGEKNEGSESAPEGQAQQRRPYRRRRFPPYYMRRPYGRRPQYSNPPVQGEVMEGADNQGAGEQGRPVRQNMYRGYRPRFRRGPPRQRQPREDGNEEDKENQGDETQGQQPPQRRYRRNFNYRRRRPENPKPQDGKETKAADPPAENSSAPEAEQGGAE
UniProt Q8N5F7: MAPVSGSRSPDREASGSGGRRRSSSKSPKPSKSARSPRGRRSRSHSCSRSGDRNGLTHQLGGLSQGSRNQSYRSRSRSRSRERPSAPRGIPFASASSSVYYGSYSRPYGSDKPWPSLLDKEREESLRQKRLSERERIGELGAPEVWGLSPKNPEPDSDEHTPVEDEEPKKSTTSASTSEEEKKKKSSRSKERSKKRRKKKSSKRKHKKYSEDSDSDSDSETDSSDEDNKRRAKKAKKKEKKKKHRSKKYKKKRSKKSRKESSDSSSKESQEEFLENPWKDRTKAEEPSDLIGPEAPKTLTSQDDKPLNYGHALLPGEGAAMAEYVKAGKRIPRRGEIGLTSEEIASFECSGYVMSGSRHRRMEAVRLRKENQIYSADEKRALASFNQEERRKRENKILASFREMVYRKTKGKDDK

Molecule | binding [1] | binding [2]
heat shock protein 90 kDa alpha (cytosolic) class B member 1 (HSP90AB1) (from UniProt P08238 1-724) | binds | 
HSPA5 (from UniProt P11021 19-654) | binds | 
SLC25A6 (protein, UniProt P12236 1-298) MTEQAISFAKDFLAGGIAAAISKTAVAPIERVKLLLQVQHASKQIAADKQYKGIVDCIVRIPKEQGVLSFWRGNLANVIRYFPTQALNFAFKDKYKQIFLGGVDKHTQFWRYFAGNLASGGAAGATSLCFVYPLDFARTRLAADVGKSGTEREFRGLGDCLVKITKSDGIRGLYQGFSVSVQGIIIYRAAYFGVYDTAKGMLPDPKNTHIVVSWMIAQTVTAVAGVVSYPFDTVRRRMMMQSGRKGADIMYTGTVDCWRKIFRDEGGKAFFKGAWSNVLRGMGGAFVLVLYDELKKVI |  | binds

The remaining lines, values ahead:

binding [1] | binding [2] | Molecule
binds |  | Y box binding protein 1 (YBX1) (from UniProt P67809 1-324)
binds |  | Ras-GTPase-activating protein SH3 domain-binding protein 1 (G3BP1) (from UniProt Q13283-1 1-466)
binds |  | NF-kappa-B-activating protein (from UniProt Q8N5F7 1-415)

From paper PMC9774693
